This is an account of results in publication PMC8192922.

Sequences of proteins named here, by UniProt entry; tags and fusion partners are left off.
UniProt P54274: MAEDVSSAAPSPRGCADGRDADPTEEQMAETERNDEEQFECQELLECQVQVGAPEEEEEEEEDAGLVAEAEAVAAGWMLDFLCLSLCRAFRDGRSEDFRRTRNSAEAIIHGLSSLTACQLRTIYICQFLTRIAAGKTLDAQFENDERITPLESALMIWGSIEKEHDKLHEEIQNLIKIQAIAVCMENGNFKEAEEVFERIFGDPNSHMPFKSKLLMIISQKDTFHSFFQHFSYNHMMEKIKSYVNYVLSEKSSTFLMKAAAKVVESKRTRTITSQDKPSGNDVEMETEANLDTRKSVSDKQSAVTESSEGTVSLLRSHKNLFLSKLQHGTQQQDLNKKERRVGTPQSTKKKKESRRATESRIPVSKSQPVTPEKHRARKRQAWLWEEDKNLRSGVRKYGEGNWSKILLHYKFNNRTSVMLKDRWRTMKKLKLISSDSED
UniProt Q7Z333: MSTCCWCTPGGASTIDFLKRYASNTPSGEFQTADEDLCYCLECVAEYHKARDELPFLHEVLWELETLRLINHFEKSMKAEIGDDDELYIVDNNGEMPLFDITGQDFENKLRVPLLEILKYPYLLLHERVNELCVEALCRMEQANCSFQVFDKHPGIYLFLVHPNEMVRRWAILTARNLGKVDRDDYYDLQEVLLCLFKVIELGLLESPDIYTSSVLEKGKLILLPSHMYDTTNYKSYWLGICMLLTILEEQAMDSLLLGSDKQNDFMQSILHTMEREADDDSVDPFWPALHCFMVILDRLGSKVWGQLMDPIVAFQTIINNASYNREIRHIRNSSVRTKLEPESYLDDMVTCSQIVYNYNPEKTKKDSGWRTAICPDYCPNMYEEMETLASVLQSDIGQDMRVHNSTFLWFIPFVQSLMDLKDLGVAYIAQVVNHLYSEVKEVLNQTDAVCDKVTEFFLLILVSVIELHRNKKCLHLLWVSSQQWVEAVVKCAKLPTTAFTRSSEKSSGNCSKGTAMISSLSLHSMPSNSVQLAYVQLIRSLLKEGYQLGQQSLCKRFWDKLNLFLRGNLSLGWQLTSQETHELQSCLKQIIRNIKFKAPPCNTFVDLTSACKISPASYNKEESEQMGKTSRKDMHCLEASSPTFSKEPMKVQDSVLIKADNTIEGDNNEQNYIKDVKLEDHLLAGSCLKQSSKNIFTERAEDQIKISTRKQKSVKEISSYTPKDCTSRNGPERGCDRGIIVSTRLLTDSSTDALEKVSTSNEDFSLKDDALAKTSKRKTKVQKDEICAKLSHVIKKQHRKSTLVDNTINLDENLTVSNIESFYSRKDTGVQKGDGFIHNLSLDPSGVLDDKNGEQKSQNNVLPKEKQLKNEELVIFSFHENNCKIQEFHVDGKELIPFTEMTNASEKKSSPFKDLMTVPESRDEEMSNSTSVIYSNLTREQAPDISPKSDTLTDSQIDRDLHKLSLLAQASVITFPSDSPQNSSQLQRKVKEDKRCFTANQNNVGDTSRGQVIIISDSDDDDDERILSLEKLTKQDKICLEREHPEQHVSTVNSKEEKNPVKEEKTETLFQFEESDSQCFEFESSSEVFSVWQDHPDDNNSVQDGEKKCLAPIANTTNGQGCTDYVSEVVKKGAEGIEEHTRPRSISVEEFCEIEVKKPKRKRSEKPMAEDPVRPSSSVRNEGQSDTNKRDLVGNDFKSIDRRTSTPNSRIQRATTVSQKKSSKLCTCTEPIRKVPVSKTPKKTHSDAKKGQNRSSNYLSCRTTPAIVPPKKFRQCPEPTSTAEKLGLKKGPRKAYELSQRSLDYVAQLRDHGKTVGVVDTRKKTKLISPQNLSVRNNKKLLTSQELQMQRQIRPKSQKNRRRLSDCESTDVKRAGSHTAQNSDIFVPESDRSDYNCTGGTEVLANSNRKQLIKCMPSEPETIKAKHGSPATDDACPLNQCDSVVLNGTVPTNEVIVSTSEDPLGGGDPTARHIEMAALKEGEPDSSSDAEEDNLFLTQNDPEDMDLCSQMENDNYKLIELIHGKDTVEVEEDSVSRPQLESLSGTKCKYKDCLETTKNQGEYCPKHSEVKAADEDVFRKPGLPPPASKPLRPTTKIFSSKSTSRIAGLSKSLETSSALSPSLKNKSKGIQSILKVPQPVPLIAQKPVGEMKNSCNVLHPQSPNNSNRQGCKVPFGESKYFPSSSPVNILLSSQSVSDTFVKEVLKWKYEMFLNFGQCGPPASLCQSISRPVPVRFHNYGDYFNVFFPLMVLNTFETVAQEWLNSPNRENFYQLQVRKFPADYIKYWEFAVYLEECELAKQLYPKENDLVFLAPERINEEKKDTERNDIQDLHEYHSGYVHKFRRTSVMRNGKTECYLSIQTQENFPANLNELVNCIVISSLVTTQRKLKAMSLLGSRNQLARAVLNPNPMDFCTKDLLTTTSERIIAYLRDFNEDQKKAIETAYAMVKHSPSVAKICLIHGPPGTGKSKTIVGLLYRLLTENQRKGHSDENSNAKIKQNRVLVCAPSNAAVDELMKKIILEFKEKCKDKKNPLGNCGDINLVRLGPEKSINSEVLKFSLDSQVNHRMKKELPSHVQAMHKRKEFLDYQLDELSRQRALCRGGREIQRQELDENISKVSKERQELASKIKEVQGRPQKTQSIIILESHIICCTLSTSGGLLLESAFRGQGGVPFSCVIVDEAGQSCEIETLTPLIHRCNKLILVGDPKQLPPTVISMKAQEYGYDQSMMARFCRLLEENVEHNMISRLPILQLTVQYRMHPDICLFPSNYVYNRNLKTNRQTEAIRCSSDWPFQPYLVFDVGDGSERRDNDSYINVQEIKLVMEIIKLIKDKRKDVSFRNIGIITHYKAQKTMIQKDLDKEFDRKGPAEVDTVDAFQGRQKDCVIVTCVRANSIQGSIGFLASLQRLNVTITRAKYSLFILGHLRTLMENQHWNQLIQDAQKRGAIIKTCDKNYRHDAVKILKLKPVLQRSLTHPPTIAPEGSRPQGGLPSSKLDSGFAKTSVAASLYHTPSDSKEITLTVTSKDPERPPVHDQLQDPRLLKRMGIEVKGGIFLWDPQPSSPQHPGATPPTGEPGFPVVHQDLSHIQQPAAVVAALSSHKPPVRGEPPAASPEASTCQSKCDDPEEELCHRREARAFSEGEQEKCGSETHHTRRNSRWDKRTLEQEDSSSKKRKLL

Results are given in words; binding and its absence hold for the method and conditions named. Binding seen in cells or lysates may run through a third protein. Some binding calls cover weakened binding; strength is not graded here.

The target of assay [1] is BRCA1 (human (endogenous in HeLa, HME and T98G)) (UniProt P38398). In words: co-IP; chromatin fractions of HeLa cells transfected or not with GFP-RNAse H1 24 h before collection; IPs of endogenous BRCA1, TRF2, TRF1 and POT1, immunoblot (Fig. 1e). Background: In western blotting, separated proteins are transferred to a membrane and probed.
Assay [2] addresses TRF1 (human (endogenous in HeLa)) (UniProt P54274). Described as above.
Assay [3] has as its target T1, POT1 (human (endogenous in HeLa)) (UniProt Q9NUX5).
T1 sequence: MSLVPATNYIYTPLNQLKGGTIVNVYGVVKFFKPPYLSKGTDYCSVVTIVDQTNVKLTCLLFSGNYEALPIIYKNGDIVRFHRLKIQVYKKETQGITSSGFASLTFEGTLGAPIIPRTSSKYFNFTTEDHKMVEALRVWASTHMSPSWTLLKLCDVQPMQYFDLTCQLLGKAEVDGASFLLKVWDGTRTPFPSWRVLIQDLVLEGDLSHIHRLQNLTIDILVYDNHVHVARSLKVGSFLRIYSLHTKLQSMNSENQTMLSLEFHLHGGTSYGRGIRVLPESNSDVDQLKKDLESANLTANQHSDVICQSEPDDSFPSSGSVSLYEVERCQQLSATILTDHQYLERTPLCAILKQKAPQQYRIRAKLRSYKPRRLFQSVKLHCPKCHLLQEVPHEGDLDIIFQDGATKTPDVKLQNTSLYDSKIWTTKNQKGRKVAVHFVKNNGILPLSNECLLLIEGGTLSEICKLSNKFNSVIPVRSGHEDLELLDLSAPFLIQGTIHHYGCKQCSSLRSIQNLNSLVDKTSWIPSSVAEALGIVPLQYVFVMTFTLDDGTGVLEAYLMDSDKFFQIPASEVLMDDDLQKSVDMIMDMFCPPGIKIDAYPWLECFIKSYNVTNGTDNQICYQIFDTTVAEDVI
The assay is described as above.

Assay [4] has as its target GST-tagged BRCA1 segment 1005-1313 aa (UniProt P38398). In words: pull-down; 2 μg of bead-bound GST-BRCA1 fusion proteins or GST beads only incubated with NETN 250 (250 mM NaCl) precleared HeLa whole-cell extracts; immunoblot for XRN2; only the target purified.
In assay [5] the target is BRCA1 (human (endogenous in HeLa, HME and T98G)), P38398. In words: co-IP; chromatin fractions of HeLa cells transfected or not with GFP-RNAse H1 24 h before collection; IPs of endogenous BRCA1, TRF2, TRF1 and POT1, immunoblot (Fig. 1e). Conditions: remark: other sources report otherwise.

“senataxin (SETX) (from UniProt Q7Z333 1-2677)”: in assay [1], the binding result was “binds”.

B1: XRN2 (protein, UniProt Q9H0D6 1-950)
chain: MGVPAFFRWLSRKYPSIIVNCVEEKPKECNGVKIPVDASKPNPNDVEFDNLYLDMNGIIHPCTHPEDKPAPKNEDEMMVAIFEYIDRLFSIVRPRRLLYMAIDGVAPRAKMNQQRSRRFRASKEGMEAAVEKQRVREEILAKGGFLPPEEIKERFDSNCITPGTEFMDNLAKCLRYYIADRLNNDPGWKNLTVILSDASAPGEGEHKIMDYIRRQRAQPNHDPNTHHCLCGADADLIMLGLATHEPNFTIIREEFKPNKPKPCGLCNQFGHEVKDCEGLPREKKGKHDELADSLPCAEGEFIFLRLNVLREYLERELTMASLPFTFDVERSIDDWVFMCFFVGNDFLPHLPSLEIRENAIDRLVNIYKNVVHKTGGYLTESGYVNLQRVQMIMLAVGEVEDSIFKKRKDDEDSFRRRQKEKRKRMKRDQPAFTPSGILTPHALGSRNSPGSQVASNPRQAAYEMRMQNNSSPSISPNTSFTSDGSPSPLGGIKRKAEDSDSEPEPEDNVRLWEAGWKQRYYKNKFDVDAADEKFRRKVVQSYVEGLCWVLRYYYQGCASWKWYYPFHYAPFASDFEGIADMPSDFEKGTKPFKPLEQLMGVFPAASGNFLPPSWRKLMSDPDSSIIDFYPEDFAIDLNGKKYAWQGVALLPFVDERRLRAALEEVYPDLTPEETRRNSLGGDVLFVGKHHPLHDFILELYQTGSTEPVEVPPELCHGIQGKFSLDEEAILPDQIVCSPVPMLRDLTQNTVVSINFKDPQFAEDYIFKAVMLPGARKPAAVLKPSDWEKSSNGRQWKPQLGFNRDRRPVHLDQAAFRTLGHVMPRGSGTGIYSNAAPPPVTYQGNLYRPLLRGQAQIPKLMSNMRPQDSWRGPPPLFQQQRFDRGVGAEPLLPWNRMLQTQNAAFQPNQYQMLAGPGGYPPRRDDRGGRQGYPREGRKYPLPPPSGRYNWN
B1: the binding entry in assay [2], in assay [3] and in assay [4] was “binds” each time.

B2: XRN2, Q9H0D6 1-950 (protein)
chain: B1 chain
Take B2: the binding entry in assay [5] is listed as “binds”.
